PubChem BioAssay AID504804 – Drosophila RNAi Screening Center | 2011
The screen tested about 19,000 reagents; shown is a random part of those with a known target gene and a result. Over the whole deposit, 47 (0.25%) were called active. 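Signals are raw, not normalised; exact z-scores behind calls not deposited; actives needed confirmation, so some wells reaching 2 SD are inactive.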 Names joined by + are all predicted targets of the reagent. No sequences are given here.

Assay: 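dsRNAs that improve Kc cell survival under doxorubicin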 (primary screen)
System: Drosophila Kc cells
Reagent: long dsRNA against Drosophila genes, 0.5 µg dsRNA per well
Timing: 96 h (48 h knock-down, then 48 h drug)
Challenge: doxorubicin 5 µg/ml for 48 h, added 48 h after dsRNA
Read-out: 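Viability measured as cellular ATP by luminescence after 48 h knock-down then 48 h doxorubicin at 5 µg/ml; unnormalised plate counts for each replicate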
Reading the numbers: raw ATP luminescence: higher = more viable cells, protection from doxorubicin
Call rule: 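z-score of 2 or more over plate mean in both duplicates, retained only when retests and separate dsRNAs confirm the protection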

Target gene	DRSC id	SD above plate mean	raw ATP luminescence, replicate 1	raw ATP luminescence, replicate 2	outcome
CG12935 + Nop10	DRSC07025		45523	81930	inactive
Or2a (Odorant receptor 2a)	DRSC18690		56590	49920	inactive
BRWD3	DRSC15369		38230	40370	inactive
BRWD3	DRSC16032		52920	52600	inactive
gw (gawky)	DRSC17160		19480	25340	inactive
Gyc32E (Guanylyl cyclase at 32E)	DRSC01154		2.81e5	3.33e5	inactive
5-HT2B (5-hydroxytryptamine (serotonin) receptor 2B)	DRSC16360		61347	62110	inactive
5-HT2B (5-hydroxytryptamine (serotonin) receptor 2B)	DRSC16362		51987	60033	inactive
EMC3 (ER membrane protein complex subunit 3)	DRSC02989		36713	51453	inactive
ttk (tramtrack)	DRSC14078		2.02e5	2.04e5	inactive
ttk (tramtrack)	DRSC17091		35740	41200	inactive
l(2)10685 (lethal (2) 10685)	DRSC00665		1.11e5	66233	inactive
CG15046	DRSC19622		3.79e5	3.30e5	inactive
Npc1b (Niemann-Pick type C-1b)	DRSC20488		3.15e5	2.83e5	inactive
snz (snazarus)	DRSC17969		27000	40220	inactive
CG7239	DRSC03038		39003	22533	inactive
Grik	DRSC15846		31853	41040	inactive
Grik	DRSC15847		56990	76980	inactive
CG14565	DRSC11726		73890	72773	inactive
CG32204	DRSC09574		41447	29273	inactive
RpL21 (Ribosomal protein L21)	DRSC03704		35020	35837	inactive
Alh (Alhambra)	DRSC12447		66390	19213	inactive
Alh (Alhambra)	DRSC12487		45637	50717	inactive
Alh (Alhambra)	DRSC12488		43037	49180	inactive
CG30001	DRSC05191		66637	79377	inactive
Nepl9 (Neprilysin-like 9)	DRSC02255		77340	75740	inactive
Aldh (Aldehyde dehydrogenase)	DRSC02717		38600	78530	inactive
CG14797	DRSC17955		44320	52510	inactive
HDAC4 (Histone deacetylase 4)	DRSC19780		3.37e5	3.91e5	inactive
Arp2 (Actin-related protein 2)	DRSC19332		3.13e5	2.58e5	inactive
pxb	DRSC13110		1.75e5	2.07e5	inactive
pxb	DRSC14996		91450	69780	inactive
pxb	DRSC14997		81260	53980	inactive
CG32163	DRSC09442		71787	93860	inactive
Ubc6 (Ubiquitin conjugating enzyme 6)	DRSC12370		28777	30687	inactive
CG33096	DRSC14440		31517	32410	inactive
CG42375 + CG9288	DRSC16468		60893	39197	inactive
CG12942	DRSC06253		33357	43430	inactive
CG33060	DRSC09939		49010	40613	inactive
Obp85a (Odorant-binding protein 85a)	DRSC14362		52140	63803	inactive
lbl (ladybird late)	DRSC16986		37860	46590	inactive
Elo68beta (Elongase 68beta)	DRSC09860		68890	1.26e5	inactive
Cnep1r2 (CTD nuclear envelope phosphatase 1 regulatory subunit 2)	DRSC10950		29753	41337	inactive
CR33319 (pseudo)	DRSC01826		92597	87903	inactive
vnd (ventral nervous system defective)	DRSC17360		2.23e5	2.46e5	inactive
vnd (ventral nervous system defective)	DRSC18849		50680	59650	inactive
CG3349	DRSC10359		1.04e5	75060	inactive
CG7006	DRSC16169		33237	31727	inactive
CG31460	DRSC14370		55870	30827	inactive
CG13144	DRSC02241		43577	69520	inactive
CG7378	DRSC20041		3.64e5	3.33e5	inactive
SCCRO4 (Squamous cell carcinoma-related oncogene 4)	DRSC10671		65137	64697	inactive
C15	DRSC13495		2.63e5	3.31e5	inactive
C15	DRSC14169		44000	43930	inactive
MED27 (Mediator complex subunit 27)	DRSC12205		62967	61870	inactive
shd (shade)	DRSC11129		83510	57647	inactive
CG13474	DRSC10018		60337	51617	inactive
CG10839	DRSC01965		60710	66860	inactive
Gr39a (Gustatory receptor 39a)	DRSC01841		42797	39127	inactive
Gr39a (Gustatory receptor 39a)	DRSC01842		63853	49743	inactive
pcx (pecanex)	DRSC18186		53760	50440	inactive
pcx (pecanex)	DRSC18187		74250	56330	inactive
pcx (pecanex)	DRSC18188		50370	54380	inactive
pcx (pecanex)	DRSC18189		56420	53680	inactive
pcx (pecanex)	DRSC18190		51700	58260	inactive
Urod (Uroporphyrinogen decarboxylase)	DRSC07569		43443	63343	inactive
CG13245	DRSC02243		87120	75107	inactive
CG34273	DRSC13041		1.82e5	1.66e5	inactive
Nufip	DRSC10397		23533	20117	inactive
Vha16-2 (Vacuolar H[+] ATPase 16kD subunit 2)	DRSC10873		78627	62520	inactive
RnrS (Ribonucleoside diphosphate reductase small subunit)	DRSC07533		49313	42853	inactive
CG5644	DRSC10531		67050	85083	inactive
CG42450	DRSC20022		3.27e5	3.09e5	inactive
Su(var)3-9 (Suppressor of variegation 3-9)	DRSC14484		47270	53237	inactive
MED16 (Mediator complex subunit 16)	DRSC04506		64107	33890	inactive
dpa (disc proliferation abnormal)	DRSC07604		36463	62193	inactive
Wbp2 (WW domain binding protein 2)	DRSC09821		45343	39073	inactive
CG14104	DRSC10106		68410	63027	inactive
CG5439	DRSC02861		1.14e5	52937	inactive
sano (serrano)	DRSC06165		72977	87430	inactive
CG42789	DRSC13793		1.38e5	1.59e5	inactive
Dyro (Dpt-YFP repressor by overexpression)	DRSC10598		74847	56773	inactive
Dys (Dystrophin)	DRSC13360		2.20e5	2.54e5	inactive
Dys (Dystrophin)	DRSC13364		1.83e5	2.00e5	inactive
Dys (Dystrophin)	DRSC15260	at least 2 SD above plate mean	87510	98240	inactive
Dys (Dystrophin)	DRSC16218		75510	88830	inactive
Dys (Dystrophin)	DRSC16219		62070	88040	inactive
Dys (Dystrophin)	DRSC16220		53070	85280	inactive
Dys (Dystrophin)	DRSC16935		64370	64780	inactive
sa (spermatocyte arrest)	DRSC11649		66823	56573	inactive
beat-IIIa (beaten path IIIa)	DRSC01575		3.22e5	3.34e5	inactive
beat-IIIa (beaten path IIIa)	DRSC01577		3.32e5	3.08e5	inactive
beat-IIIa (beaten path IIIa)	DRSC02178		51623	59993	inactive
CG15820	DRSC08480		54003	58600	inactive
RhoGAP1A (Rho GTPase activating protein at 1A)	DRSC20649		3.57e5	3.51e5	inactive
RhoGAP1A (Rho GTPase activating protein at 1A)	DRSC20651		3.88e5	3.65e5	inactive
Vti1b (Vesicle transport through interaction with t-SNAREs 1b)	DRSC16283		43090	37617	inactive
Vti1b (Vesicle transport through interaction with t-SNAREs 1b)	DRSC16284		74200	95380	inactive
CG7201	DRSC10786		68357	67193	inactive
CG32687	DRSC18210		3.79e5	3.37e5	inactive
CG32687	DRSC18237		3.13e5	2.97e5	inactive
CG8117	DRSC20082		3.67e5	2.31e5	inactive
CG34338	DRSC17535		1.56e5	1.68e5	inactive
CG7888	DRSC10926		44000	36590	inactive
Obp99d (Odorant-binding protein 99d)	DRSC15046		54470	42800	inactive
TFAM (mitochondrial transcription factor A)	DRSC15552		60770	62017	inactive
CG7420	DRSC00704		92337	60570	inactive
